Source: article PMC4234293, “Galactosyltransferases from Arabidopsis thaliana in the biosynthesis of type II arabinogalactan: molecular interaction enhances enzyme activity” (BMC Plant Biology, 2014)
Results are given in words; binding and its absence hold for the method and conditions named. Binding seen in cells or lysates may run through a third protein. Some results given as binding are weak or reduced against the parent protein; the word gives no strength. Where a sequence is shown, tags or fusion partners need not be part of it.

Molecular target: T1, HA-AtGALT29A (full-length At1g08280 with N-terminal HA tag) (Arabidopsis thaliana) (UniProt Q9SGD2)
T1 sequence: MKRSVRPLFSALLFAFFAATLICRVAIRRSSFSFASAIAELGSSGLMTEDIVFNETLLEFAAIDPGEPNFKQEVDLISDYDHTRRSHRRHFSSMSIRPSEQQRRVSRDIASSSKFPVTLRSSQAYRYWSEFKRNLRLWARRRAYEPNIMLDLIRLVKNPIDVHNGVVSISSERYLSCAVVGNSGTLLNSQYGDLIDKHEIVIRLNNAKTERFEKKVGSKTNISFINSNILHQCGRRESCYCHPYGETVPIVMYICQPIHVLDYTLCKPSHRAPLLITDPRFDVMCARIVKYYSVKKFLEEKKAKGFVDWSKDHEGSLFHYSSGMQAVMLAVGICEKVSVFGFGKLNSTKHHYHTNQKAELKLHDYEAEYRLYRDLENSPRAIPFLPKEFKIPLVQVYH
Experiment: co-IP; detergent-treated (5 mM n-dodecyl beta-maltoside) microsomes of N. benthamiana co-expressing both proteins; anti-HA agarose overnight at 4°C, washed in PBS; Western blot with anti-GFP

- binding: binds
B1: AtGALT31A-GFP (AtGALT31A, At1g32930, as a C-terminal GFP fusion protein) (enzyme, UniProt Q9MAP8 1-399)
chain: MGMGRYQKSATSGVSARWVFVLCISSFLLGVLVVNRLLASFETVDGIERASPEQNDQSRSLNPLVDCESKEGDILSRVSHTHDVIKTLDKTISSLEVELATARAARSDGRDGSPAVAKTVADQSKIRPRMFFVMGIMTAFSSRKRRDSIRGTWLPKGDELKRLETEKGIIMRFVIGHSSSPGGVLDHTIEAEEEQHKDFFRLNHIEGYHELSSKTQIYFSSAVAKWDADFYIKVDDDVHVNLGMLGSTLARHRSKPRVYIGCMKSGPVLAQKGVKYHEPEYWKFGEEGNKYFRHATGQIYAISKDLATYISVNRQLLHKYANEDVSLGSWFIGLDVEHIDDRSLCCGTPLDCEWKGQAGNPCAASFDWSCSGICKSVDRMLEVHQRCGEGDGAIWHSSF
